The other results are listed elsewhere or left out.
Tests used:
Test in all cases: glycan array binding signal (z-score within array); higher = stronger binding
Settings in all cases: glycan notation: IUPAC condensed, linker removed
[1] = target: Neu5Ac(a2-6)GlcNAc(b1-4)GlcNAc(b1-4)GlcNAc
Summary of the method: (§1)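 The binding signal is a Z-score computed within each array and averaged over linkers. Arrays of the same protein sequence at different concentrations or buffers were also averaged together. Data originate from 3228 arrays in the Consortium for Functional Glycomics database, kept only where the protein sequence was available.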

Neu5Ac(a2-8)Neu5Ac = target: Neu5Ac(a2-8)Neu5Ac
Summary of the method: as §1

[2] = target: Neu5Ac(a2-8)Neu5Ac(a2-3)Gal(b1-3)GalNAc(b1-4)[Neu5Ac(a2-3)]Gal(b1-4)Glc
Summary of the method: as §1

[3] = target: Neu5Ac(a2-8)Neu5Ac(a2-3)Gal(b1-3)GalNAc(b1-4)[Neu5Ac(a2-8)Neu5Ac(a2-3)]Gal(b1-4)Glc
Summary of the method: as §1

[4] = target: Neu5Ac(a2-8)Neu5Ac(a2-3)Gal(b1-4)Glc
Summary of the method: as §1

[5] = target: Neu5Ac(a2-8)Neu5Ac(a2-3)Gal(b1-4)GlcNAc
Summary of the method: as §1

[6] = target: Neu5Ac(a2-8)Neu5Ac(a2-3)[Gal(b1-3)GalNAc(b1-4)]Gal(b1-4)Glc
Summary of the method: as §1

[7] = target: Neu5Ac(a2-8)Neu5Ac(a2-3)[GalNAc(b1-4)]Gal(b1-4)Glc
Summary of the method: as §1

[8] = target: Neu5Ac(a2-8)Neu5Ac(a2-8)Neu5Ac
Summary of the method: as §1

[9] = target: Neu5Ac(a2-8)Neu5Ac(a2-8)Neu5Ac(a2-3)Gal(b1-4)Glc
Summary of the method: as §1

[10] = target: Neu5Ac(a2-8)Neu5Ac(a2-8)Neu5Ac(a2-3)[Gal(b1-3)GalNAc(b1-4)]Gal(b1-4)Glc
Summary of the method: as §1

[11] = target: Neu5Ac(a2-8)Neu5Ac(a2-8)Neu5Ac(a2-3)[GalNAc(b1-4)]Gal(b1-4)Glc
Summary of the method: as §1

[12] = target: Neu5Ac(a2-8)Neu5Ac(a2-8)Neu5Ac(a2-8)Neu5Ac(a2-3)[GalNAc(b1-4)]Gal(b1-4)Glc
Summary of the method: as §1

[13] = target: Neu5Ac(a2-8)Neu5Gc(a2-3)Gal(b1-4)GlcNAc
Summary of the method: as §1

[14] = target: Neu5Ac(b2-6)Gal(b1-4)GlcNAc
Summary of the method: as §1

Neu5Ac(b2-6)GalNAc = target: Neu5Ac(b2-6)GalNAc
Summary of the method: as §1

[15] = target: Neu5Ac9Ac(a2-3)Gal(b1-3)GlcNAc
Summary of the method: as §1

[16] = target: Neu5Ac9Ac(a2-3)Gal(b1-4)GlcNAc
Summary of the method: as §1

[17] = target: Neu5Ac9Ac(a2-6)Gal(b1-4)GlcNAc
Summary of the method: as §1

[18] = target: Neu5Gc(a2-3)Gal(b1-3)GlcNAc
Summary of the method: as §1

[19] = target: Neu5Gc(a2-3)Gal(b1-3)[Fuc(a1-4)]GlcNAc
Summary of the method: as §1

Neu5Gc(a2-3)Gal(b1-4)Glc = target: Neu5Gc(a2-3)Gal(b1-4)Glc
Summary of the method: as §1

[20] = target: Neu5Gc(a2-3)Gal(b1-4)GlcNAc
Summary of the method: as §1

[21] = target: Neu5Gc(a2-3)Gal(b1-4)GlcNAc(b1-3)Gal(b1-4)GlcNAc(b1-2)Man(a1-3)[Neu5Gc(a2-3)Gal(b1-4)GlcNAc(b1-3)Gal(b1-4)GlcNAc(b1-2)Man(a1-6)]Man(b1-4)GlcNAc(b1-4)GlcNAc
Summary of the method: as §1

[22] = target: Neu5Gc(a2-3)Gal(b1-4)[Fuc(a1-3)]GlcNAc
Summary of the method: as §1

[23] = target: Neu5Gc(a2-6)Gal(b1-4)GlcNAc
Summary of the method: as §1

Neu5Gc(a2-6)GalNAc = target: Neu5Gc(a2-6)GalNAc
Summary of the method: as §1

[24] = target: Neu5Gc(a2-8)Neu5Ac(a2-3)Gal(b1-4)GlcNAc
Summary of the method: as §1

[25] = target: Neu5Gc(a2-8)Neu5Gc(a2-3)Gal(b1-4)GlcNAc
Summary of the method: as §1

[26] = target: Neu5Gc(a2-8)Neu5Gc(a2-3)Gal(b1-4)GlcNAc(b1-3)Gal(b1-4)GlcNAc
Summary of the method: as §1

[27] = target: Neu5Gc(a2-8)Neu5Gc(a2-6)Gal(b1-4)GlcNAc
Summary of the method: as §1

[28] = target: Neu5Gc(b2-6)Gal(b1-4)GlcNAc
Summary of the method: as §1

B1: PX9961K-bvu-480-28-480 (Bacteroides vulgatus) (protein)
chain: NKIPTTMAFRTVTDVDNAVNGLYDLMSGSGYYGAAMFAYGDMKGDDMQSSEESGVCNTCYMFNHRPNSLNAGSLWGRPFYILREAWNILNAIAEGKIESGDEKKLNALKGETMAVIALCQFDLTRCFGYPYTKDKGASLGAPLIDHLVGTYENPPRSTVAQAYDFIIETLEEAVTLMSEEKNNGRMNKYAARALLARIYLYHDDNRKAFDLADQLIKDADTSGSYALYPHEKYVAAWSVEAKFGSESFFEIANSVDDTPGRDSWGYLLNWYGYQKGFVTQKYAEQMLADPGDVRGHLLEENKYAGKTVWWLYKLRGTDLKTAPLECNNVVLRLSEVYLIAAEAGCKLGGDAAVQGLGYLNEIVKRGNPDNEVTMADYTLDRVLDERSKELVGEGHRFFDLLRNGKTIVRKGGYHLPSVDEEVDWDFYKCVLPIPEDQFIFSPEMEQNPGYPKN
[1]
  glycan array binding signal (z-score): 0.25
Neu5Ac(a2-8)Neu5Ac
  glycan array binding signal (z-score): -0.144
[2]
  glycan array binding signal (z-score): 0.209
[3]
  glycan array binding signal (z-score): -0.442
[4]
  glycan array binding signal (z-score): -0.84
[5]
  glycan array binding signal (z-score): -0.587
[6]
  glycan array binding signal (z-score): -0.283
[7]
  glycan array binding signal (z-score): 1.37
[8]
  glycan array binding signal (z-score): -0.804
[9]
  glycan array binding signal (z-score): 0.763
[10]
  glycan array binding signal (z-score): -0.141
[11]
  glycan array binding signal (z-score): -0.463
[12]
  glycan array binding signal (z-score): 0.837
[13]
  glycan array binding signal (z-score): 19.1
[14]
  glycan array binding signal (z-score): -0.708
Neu5Ac(b2-6)GalNAc
  glycan array binding signal (z-score): 0.065
[15]
  glycan array binding signal (z-score): -0.942
[16]
  glycan array binding signal (z-score): 0.711
[17]
  glycan array binding signal (z-score): -0.16
[18]
  glycan array binding signal (z-score): -0.227
[19]
  glycan array binding signal (z-score): -0.201
Neu5Gc(a2-3)Gal(b1-4)Glc
  glycan array binding signal (z-score): -0.786
[20]
  glycan array binding signal (z-score): 0.165
[21]
  glycan array binding signal (z-score): 0.711
[22]
  glycan array binding signal (z-score): -0.246
[23]
  glycan array binding signal (z-score): -0.443
Neu5Gc(a2-6)GalNAc
  glycan array binding signal (z-score): -0.48
[24]
  glycan array binding signal (z-score): 0.097
[25]
  glycan array binding signal (z-score): -0.371
[26]
  glycan array binding signal (z-score): -0.216
[27]
  glycan array binding signal (z-score): -0.167
[28]
  glycan array binding signal (z-score): -0.909
